Out of some 390,000 compounds screened, about 910 (0.23%) were called active. Inconclusive means that the source gave no clear call. Such entries were picked first, then a sample of the others. The call rests on the fitted dose curve; in most records, active means well fitted inhibition curve with a large enough effect; inconclusive means small, poorly fitted or top-dose-only effect; inactive means no such curve, though single readings can be large or run the other way. Potencies beside an inconclusive call are fits to weak or partial responses and may not hold up.
Target: Ubiquitin carboxyl-terminal hydrolase 1 (Homo sapiens) (UniProt O94782)
Test: Inhibitors of USP1/UAF1: Primary Screen; further: nearly all actives have a fitted effect of over 60% in size
Conditions: recombinant USP1/UAF1, Ub-Rhodamine cleavage fluorescence; activity change, negative = inhibition: at 57.1 µM (top of the series)
In short: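 Step one: compound is pinned into 1nM USP1/UAF1 in HEPES pH 7.8 buffer with TCEP. Step two: 15 min room-temperature incubation. Step three: Ub-Rho (150nM final) starts cleavage, tracked by fluorescence over six one-minute reads.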
On the % scale 0 is the no-effect control and ±100 the full control effect; potency means the concentration at half of the fitted maximal effect.

Chains of the proteins cited; added tags and fusions are not shown. Lines headed by an entry give the natural chain unless they say otherwise; changes in a name come on top.
UniProt O94782: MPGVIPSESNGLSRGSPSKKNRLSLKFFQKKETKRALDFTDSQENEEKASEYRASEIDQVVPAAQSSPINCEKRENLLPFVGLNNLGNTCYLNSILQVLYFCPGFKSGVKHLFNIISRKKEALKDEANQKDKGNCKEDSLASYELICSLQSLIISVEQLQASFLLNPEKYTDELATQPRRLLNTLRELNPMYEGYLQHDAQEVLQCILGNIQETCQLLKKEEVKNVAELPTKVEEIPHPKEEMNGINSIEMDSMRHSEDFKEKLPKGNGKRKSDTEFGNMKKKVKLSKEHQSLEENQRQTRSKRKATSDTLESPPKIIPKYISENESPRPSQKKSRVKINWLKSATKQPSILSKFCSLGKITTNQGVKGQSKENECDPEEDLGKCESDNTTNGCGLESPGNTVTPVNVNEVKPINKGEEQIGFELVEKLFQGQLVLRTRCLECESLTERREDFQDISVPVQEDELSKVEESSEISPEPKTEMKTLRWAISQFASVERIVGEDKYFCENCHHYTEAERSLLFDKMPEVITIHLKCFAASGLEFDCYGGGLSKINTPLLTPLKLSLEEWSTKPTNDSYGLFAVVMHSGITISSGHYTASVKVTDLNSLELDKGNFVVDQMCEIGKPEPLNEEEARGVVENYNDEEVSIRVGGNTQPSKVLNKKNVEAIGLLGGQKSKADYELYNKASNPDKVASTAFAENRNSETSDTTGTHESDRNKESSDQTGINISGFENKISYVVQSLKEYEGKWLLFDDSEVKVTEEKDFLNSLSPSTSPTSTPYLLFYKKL

Row | Structure (SMILES) | Potency | activity change, negative = inhibition
1 | Cc1ccc(-c2cc(C(=O)Nc3cc([N+](=O)[O-])ccc3C)no2)cc1F | inconclusive: 14.1 µM [inhibitor, partial curve] | 
2 | Cc1ccc(Sc2c(C)nn(-c3ccccc3)c2OC(=O)C(C)(C)C)cc1 | inconclusive: 70.8 µM [inhibitor, partial curve, poor fit] | 
3 | S=c1[nH]c(-c2cccs2)cn1-c1ccccc1 | inconclusive: 31.6 µM [inhibitor, single point] | 
4 | O=C(Cn1c(=O)n(Cc2nc(-c3ccccc3)no2)c(=O)c2ccccc21)Nc1cccc(C(F)(F)F)c1 |  | inactive: -21%
5 | CCC1Oc2ccc(C)cc2N(CC(=O)N2CCN(c3ccc(F)cc3)CC2)C1=O (stereo not given) |  | inactive: -0.841%
6 | Cc1c(Cl)cccc1NC(=O)CC1Oc2ccccc2NC1=O (stereo not given) | inconclusive: 0.891 µM [inhibitor, full curve, poor fit] | 
7 | CCCCOC(=O)Nc1nc(CC(=O)OCC)cs1 |  | inactive: -1.02%
8 | N#Cc1c(N)nc(SCc2ccncc2)c(C#N)c1-c1cccs1 | inconclusive: 39.8 µM [inhibitor, partial curve, poor fit] | 
9 | O=C(Nc1ccccc1Br)c1cc[n+]([O-])cc1 |  | inactive: -17.6%
10 | Cc1cccc2c3nc4ccccc4nc3n(C)c12 | inconclusive: 12.6 µM [inhibitor, partial curve] | 
11 | O=C(Nc1ccc(C(=O)O)cc1)/C(=C\c1ccco1)NC(=O)c1ccc(Br)o1 | inconclusive: 44.7 µM [inhibitor, partial curve, poor fit] | 
12 | CCOC(=O)Cn1c(=O)n(CC2CCCO2)c2nc(-c3ccccc3OC)nc(C(N)=O)c21 (stereo not given) | inconclusive: 12.6 µM [inhibitor, partial curve, poor fit] | 
13 | CCN(c1ccccc1)S(=O)(=O)c1ccc(NC(=O)c2nc(SC)ncc2Cl)cc1 | inconclusive: 355 µM [inhibitor, partial curve] | 
14 | CSc1cc(C)nc(NC(C)=O)n1 | inconclusive: 3.16 µM [inhibitor, partial curve] | 
15 | COc1ccc(Cn2c(CCC(=O)Nc3cc(OC)c(OC)c(OC)c3)nc3cccnc32)cc1 | inconclusive: 7.94 µM [inhibitor, single point] | 
16 | COC(=O)[C@H](CCSC)NC(=O)Cn1ccc(N)nc1=O | inconclusive: 0.251 µM [inhibitor, full curve, poor fit] | 
17 | Cn1cc(-c2cc3n(n2)CCC(=O)N3CCCC(=O)NCc2ccc(Cl)cc2)c2ccccc21 | inconclusive: 50.1 µM [inhibitor, partial curve, poor fit] | 
18 | CS(=O)(=O)Nc1ccc(C2=NN(C(=O)c3cccc(F)c3)C(c3cccs3)C2)cc1 (stereo not given) |  | inactive: -20.3%
19 | O=C(NCCCN1CCCCC1)c1sc2ncccc2c1-n1cccc1 | inconclusive: 3.98 µM [inhibitor, partial curve] | 
20 | Cc1ccccc1NC(=O)Cc1nc(COC(=O)C(C)(C)Oc2ccc(Cl)cc2)cs1 | inconclusive: 0.141 µM [inhibitor, full curve, poor fit] | 
21 | O=C(NCc1ccccc1C(F)(F)F)c1cccc2c1C(=O)c1ccc(N3CCC(N4CCCCC4)CC3)cc1S2(=O)=O | inconclusive: 31.6 µM [inhibitor, partial curve] | 
22 | N#Cc1c2ccc(OCC(N)=O)cc2n2ccccc12 | inconclusive: 39.8 µM [inhibitor, partial curve, poor fit] | 

Row | Structure (SMILES) | Potency | activity change, negative = inhibition
23 | COc1cc([C@@H]2CC=C(C(=O)O)[C@H](c3ccccc3)N2S(=O)(=O)c2ccc(C)cc2)cc(OC)c1OC | inconclusive: 50.1 µM [inhibitor, partial curve, poor fit] | 
24 | COc1ccccc1CN(C(=O)CCl)C(C(=O)NC1CCCCC1)c1ccncc1 (stereo not given) | inconclusive: 44.7 µM [inhibitor, partial curve, poor fit] | 
25 | CCn1nc(C)c2c(-c3ccccc3)cc(=O)n(C(C)C(=O)NCCC(C)C)c21 (stereo not given) | inconclusive: 35.5 µM [inhibitor, partial curve, poor fit] | 
26 | O=C(NCc1cc(C(F)(F)F)cc(C(F)(F)F)c1)C1CC(c2cccc(F)c2)=NO1 (stereo not given) | inconclusive: 50.1 µM [inhibitor, partial curve, poor fit] | 
27 | CCOc1ccc(OCCC(=O)N(CC)CC(=O)Nc2ccccc2OC)cc1 |  | inactive: -14.3%
28 | O=C(Nc1nccs1)c1ccc(-c2ccc([N+](=O)[O-])cc2)o1 | inconclusive: 5.01 µM [inhibitor, full curve, poor fit] | 
29 | CCCC(/C=C/c1ccc(OC(C)=O)cc1)=C1/c2ccccc2C(=O)N1c1ccccc1 | inconclusive: 22.4 µM [inhibitor, partial curve] | 
30 | Cc1ccc(N2CCN(c3ccc(NCc4nc5ccccc5n4C)cc3)CC2)cc1 |  | inactive: -3.81%
31 | Cc1cccc(C(=O)N(Cc2ccco2)c2c(N)n(Cc3ccccc3)c(=O)[nH]c2=O)c1 |  | inactive: -10.6%
32 | CCN(CC)CCCN1C=C2C(=O)C(C)(OC(=O)C3CCCC3)C(=O)C(c3ccccc3)=C2C=C1CCCC(=O)OC (stereo not given) | inconclusive: 22.4 µM [inhibitor, partial curve] | 
33 | Cc1ccc(CSc2nc3ccc(NC(=O)COc4ccccc4)cc3s2)cc1 | inconclusive: 8.91 µM [inhibitor, partial curve] | 
34 | CCc1ccc(NC(=O)CS(=O)CC(=O)Nc2ccc(-n3cnnn3)c(C)c2)cc1 (stereo not given) |  | inactive: 20.6%
35 | O=C(NC(=S)Nc1nc(-c2ccccc2)cs1)c1cncc(Br)c1 |  | inactive: -11.8%
36 | CCCNC(=O)Cn1c(=O)oc2cc(S(=O)(=O)N3CCCC3)ccc21 | inconclusive: 0.355 µM [inhibitor, full curve, poor fit] | 
37 | CCc1ccc(C(=O)c2cn(CC(=O)Nc3cccc(OC)c3)c3ccc(OC)cc3c2=O)cc1 | inconclusive: 3.98 µM [inhibitor, full curve] | 
38 | Cc1cc(C)c(NC(=O)C2=CCN(S(=O)(=O)c3ccc(F)cc3)CC2)c(C)c1 | inconclusive: 0.708 µM [inhibitor, full curve, poor fit] | 
39 | Cc1ccc(C)c(NC(=O)CN2CCCN(Cc3cccc(Cl)c3)S2(=O)=O)c1 |  | inactive: -3.36%
40 | O=C(N/N=C/c1c(O)n(-c2ccccc2Cl)c(=O)c2ccccc12)c1cccnc1 | inconclusive: 31.6 µM [inhibitor, partial curve] | 
41 | O=C(CCNC(=O)C1CCN(S(=O)(=O)c2ccc(F)cc2)CC1)NCc1ccc(Cl)cc1 |  | inactive: -2.96%
42 | COc1ccc(OC)c(CNC(=O)c2cc3c(-c4ccc(OC)c(OC)c4)nn(C)c3s2)c1 | inconclusive: 5.01 µM [inhibitor, full curve, poor fit] | 
43 | CCOC(=O)c1ccc(OCCOc2ccccc2C)cc1 |  | inconclusive: -35.7% [inhibitor]
44 | O=C(O)c1cc(S(=O)(=O)Nc2ccc3cn[nH]c3c2)ccc1O | inconclusive: 44.7 µM [inhibitor, partial curve, poor fit] | 

Retrieved by structure from the list above, 3 records:
Row | Structure (SMILES) | Potency | activity change, negative = inhibition
23 | COc1cc([C@@H]2CC=C(C(=O)O)[C@H](c3ccccc3)N2S(=O)(=O)c2ccc(C)cc2)cc(OC)c1OC | inconclusive: 50.1 µM [inhibitor, partial curve, poor fit] | 
27 | CCOc1ccc(OCCC(=O)N(CC)CC(=O)Nc2ccccc2OC)cc1 |  | inactive: -14.3%
40 | O=C(N/N=C/c1c(O)n(-c2ccccc2Cl)c(=O)c2ccccc12)c1cccnc1 | inconclusive: 31.6 µM [inhibitor, partial curve] | 

More records follow.

Row | Structure (SMILES) | Potency | activity change, negative = inhibition
45 | CCC1CCCCN1C(=O)C(=O)c1cn(CC(=O)N(CC)CC)c2ccccc12 (stereo not given) |  | inactive: -11.6%
46 | COc1cccc(NC(=O)NCCCSC2CCCCC2)c1 |  | inactive: -20.3%
47 | CCOC(=O)c1ccc(NS(=O)(=O)c2cnc[nH]2)cc1 | inconclusive: 22.4 µM [inhibitor, single point] | 
48 | CCCc1cc(C(N)=O)c(NC(=O)C2CCCO2)s1 (stereo not given) |  | inactive: -16.3%
49 | CCOc1ccc(N2CC(NC(=O)C(=O)c3c[nH]c4ccccc34)CC2=O)cc1 (stereo not given) | inconclusive: 1.12 µM [inhibitor, full curve] | 
50 | CCn1c(=O)cc(SCC(=O)NCc2ccc(F)cc2Cl)c2ccccc21 | inconclusive: 14.1 µM [inhibitor, partial curve] | 
51 | Cc1cc(Cl)ccc1Nc1ncccc1C(N)=O | inconclusive: 6.31 µM [inhibitor, single point] | 
52 | O=C(c1cc2ccccc2oc1=O)N1CCN(c2ccc(N3CCOCC3)nn2)CC1 | inconclusive: 22.4 µM [inhibitor, partial curve] | 
53 | Oc1nc(Nc2ccc(F)cc2)sc1/C=C1\C=Nc2ccccc21 |  | inactive: -23.6%
54 | CCCCn1c(-c2ccccc2C)nc2cc3[nH]c(=O)c(C(C)C)nc3cc21 | inconclusive: 44.7 µM [inhibitor, partial curve, poor fit] | 
55 | Cc1cccc(NC(=O)CSc2cn(CC(=O)N3CCCCCC3)c3ccccc23)c1 | inconclusive: 0.1 µM [inhibitor, full curve, poor fit] | 
56 | Cc1cc(/C=C2\SC(=S)NC2=O)c(C)n1C |  | inactive: -18.6%
57 | COc1cccc(-c2cc(C(=O)Nc3c(C)nn(Cc4ccccc4Cl)c3C)no2)c1 |  | inactive: -22.1%
58 | O=C(NCc1ccc(Cl)cc1)C1CCCN(S(=O)(=O)c2cnc[nH]2)C1 (stereo not given) | inconclusive: 0.447 µM [inhibitor, full curve, poor fit] | 
59 | CC(C)C[C@H](NC(=O)c1nc[nH]c1C(=O)N(C)Cc1ccccc1)C(=O)OCc1ccccc1 | inconclusive: 39.8 µM [inhibitor, partial curve] | 
60 | Clc1ccc(-c2nc3cnccn3c2Nc2ccc3c(c2)OCO3)cc1 |  | inactive: -9.77%
61 | COc1ccc(Cl)cc1NC(=O)CN(C)CC(=O)Nc1cccc(S(=O)(=O)N2CCCC2)c1 | inconclusive: 0.316 µM [inhibitor, full curve, poor fit] | 
62 | Cc1ccc(C(=O)NC(C#N)=C(Cl)Cl)cc1 | inconclusive: 31.6 µM [inhibitor, single point] | 
63 | Cc1ccc(NC(=O)c2cc(S(=O)(=O)N(C)C3CCCCC3)ccc2F)cc1C | inconclusive: 89.1 µM [inhibitor, partial curve, poor fit] | 
64 | CCN(c1cccc(C)c1)S(=O)(=O)c1ccc(N2CCCCS2(=O)=O)cc1 |  | inactive: -22.5%
65 | O=C(NCC1CCCO1)C(=O)N/N=C/c1ccc(OCc2ccccc2Cl)cc1 (stereo not given) | inconclusive: 0.355 µM [inhibitor, full curve] | 

From PubChem BioAssay AID743255 (National Center for Advancing Translational Sciences (NCATS), 2014)
